# Data reported in patent US7199128B2, “8-N-substituted-2H-isothiazolo[5,4-b]quinolizine-3,4-diones and related compounds as antiinfective agents” (Achillion Pharmaceuticals, Inc., priority 2005, dated 2007).
# Chains of the proteins cited; added tags and fusions are not shown. Lines headed by an entry give the natural chain unless they say otherwise; changes in a name come on top.
# UniProt P11388: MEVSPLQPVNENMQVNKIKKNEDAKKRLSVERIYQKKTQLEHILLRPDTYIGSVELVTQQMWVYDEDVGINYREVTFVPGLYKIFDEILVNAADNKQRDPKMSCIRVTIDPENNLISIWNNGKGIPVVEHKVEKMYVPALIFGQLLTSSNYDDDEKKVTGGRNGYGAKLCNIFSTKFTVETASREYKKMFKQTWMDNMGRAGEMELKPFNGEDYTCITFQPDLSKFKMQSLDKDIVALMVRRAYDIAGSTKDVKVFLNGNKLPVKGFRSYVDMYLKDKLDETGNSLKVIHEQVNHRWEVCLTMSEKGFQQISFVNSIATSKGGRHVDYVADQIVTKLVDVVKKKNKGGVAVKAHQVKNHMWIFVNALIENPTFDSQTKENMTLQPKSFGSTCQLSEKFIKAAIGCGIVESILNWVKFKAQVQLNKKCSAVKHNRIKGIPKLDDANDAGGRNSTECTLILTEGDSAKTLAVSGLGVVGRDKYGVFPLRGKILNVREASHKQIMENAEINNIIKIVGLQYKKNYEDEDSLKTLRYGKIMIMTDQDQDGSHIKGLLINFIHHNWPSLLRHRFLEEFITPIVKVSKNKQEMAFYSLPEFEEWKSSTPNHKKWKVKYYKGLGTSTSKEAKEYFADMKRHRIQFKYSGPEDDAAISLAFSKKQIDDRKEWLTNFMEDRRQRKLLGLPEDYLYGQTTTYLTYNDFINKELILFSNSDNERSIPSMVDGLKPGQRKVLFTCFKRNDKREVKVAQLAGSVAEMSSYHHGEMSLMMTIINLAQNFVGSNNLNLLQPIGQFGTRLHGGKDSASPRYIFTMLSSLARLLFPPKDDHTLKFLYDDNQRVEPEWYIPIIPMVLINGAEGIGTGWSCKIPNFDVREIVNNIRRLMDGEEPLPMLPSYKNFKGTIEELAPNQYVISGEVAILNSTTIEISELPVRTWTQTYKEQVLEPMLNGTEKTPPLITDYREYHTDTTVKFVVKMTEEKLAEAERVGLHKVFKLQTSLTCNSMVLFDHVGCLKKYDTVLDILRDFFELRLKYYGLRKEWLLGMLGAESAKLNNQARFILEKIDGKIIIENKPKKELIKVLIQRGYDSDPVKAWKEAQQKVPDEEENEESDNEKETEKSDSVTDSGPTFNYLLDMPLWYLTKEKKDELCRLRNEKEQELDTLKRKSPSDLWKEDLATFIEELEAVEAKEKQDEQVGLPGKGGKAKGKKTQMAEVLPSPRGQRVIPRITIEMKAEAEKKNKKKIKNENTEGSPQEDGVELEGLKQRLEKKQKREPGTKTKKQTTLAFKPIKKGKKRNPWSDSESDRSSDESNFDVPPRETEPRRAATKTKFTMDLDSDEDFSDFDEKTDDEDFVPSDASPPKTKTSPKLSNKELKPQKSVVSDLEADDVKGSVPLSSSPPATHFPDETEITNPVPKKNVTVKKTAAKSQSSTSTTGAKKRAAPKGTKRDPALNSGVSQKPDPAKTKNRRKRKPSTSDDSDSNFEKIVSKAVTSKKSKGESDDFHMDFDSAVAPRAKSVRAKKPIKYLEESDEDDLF
# Some entries share one result that the patent states for a list of compounds.
# Target: T1, Human p170 topoisomerase II (Homo sapiens, UniProt P11388)
# T1 construct: purchased TopoGen
# Experiment: Human topoisomerase II DNA cleavage assay
# Type: biochemical
# Conditions: concentration required to enhance enzyme-mediated cleavage of double-stranded DNA twofold
smiles,measurement,value
"CCc1c2s[nH]c(=O)c2c(=O)n2ccc(N3CCNCC3)cc12 [Compound 8, 10-ethyl-8-(piperazin-1-yl)-2H-isothiazolo[5,4-b]quinolizine-3,4-dione]",EC2 against human topoisomerase II,> 150 µM
"O=c1[nH]sc2c(C3CC3)c3cc(N4CC(O)C4)c(F)cn3c(=O)c12 [Compound 9, 10-cyclopropyl-7-fluoro-8-(3-hydroxyazetidin-1-yl)-2H-isothiazolo[5,4-b]quinolizine-3,4-dione]",EC2 against human topoisomerase II,> 150 µM
